# Reference: patent US11149068B2, “Pore-forming peptides and uses thereof” (The Administrators of the Tulane Educational Fund, priority 2018, dated 2021)
# Part of at least one peptide drawing is inferred or uncertain, most often the ends. Ends that are not written are not given here.
# Tests used:
# [1] = Tryptophan fluorescence (membrane partitioning versus pH); format: binding; conditions: P:L=1:200
# [2] = Circular dichroism spectroscopy of peptide secondary structure in the presence of vesicles versus pH; format: physicochemical; conditions: P:L=1:200 in 1 mM POPC vesicles
# Procedure: FIGS. 5A-5B are graphs depicting example binding and folding data. FIG. 5A: Circular dichroism spectra of pHD108 (SEQ ID NO: 9) versus pH at P:L=1:200 in 1 mM POPC vesicles. Separate samples are made at each pH and equilibrated for 30 minutes prior to the measurement. The spectra show a structural transition from random coil at pH 7 to classical α-helix at pH<5.75. FIG. 5B: Tryptophan fluorescence spectra of pHD108 at P:L=1:200 in 1 mM POPC vesicles. Separate samples are made at each pH and equilibrated for 30 minutes prior to the measurement. The spectra show a transition from a more polar, water-exposed environment to a less polar or buried environment consistent with peptide partitioning into bilayers.
# Peptide secondary structure in the presence of vesicles as a function of pH was studied by circular dichroism spectroscopy. Example CD spectra for pHD108 at P:L=1:200 are seen in FIG. 5A and show a pH-triggered transition from random coil to α-helical structure with an effective pKa around 5.5. Circular dichroism was measured in a JASCO 810 spectropolarimeter. Samples in buffers of various pH were prepared by mixing peptide and vesicle solutions, each prepared at the needed pH. Spectra were collected on samples of 2 mM vesicles and 10 μM peptide in 1 mm path rectangular quartz cuvette after 1 hour of equilibration.
# [3] = Macromolecular leakage assay (release of 40 kDa TAMRA-biotin-dextran from lipid vesicles); format: biochemical; conditions: peptide to lipid ratios as high as 1:50
# Procedure: Large unilamellar vesicles for leakage assays were prepared as previously described (37) in 100 mM potassium chloride, with 10 mM sodium phosphate or 10 mM sodium acetate buffer. For small molecule leakage, lipids, dried from chloroform, were resuspended in buffer made of: 12.5 mM ANTS, 45 mM DPX, 5 mM HEPES, and 20 mM sodium chloride. For macromolecular leakage assays, lipids were resuspended in buffer with 1 mg/ml TAMRA-biotin-dextran (TBD). Lipid suspensions were frozen and thawed ten times and then extruded 10 times using a 0.1 um pore size Nuclepore polycarbonate filter (38). After extrusion, external ANTS and DPX were removed by gel filtration with Sephadex G100. […]
# As described previously (33), 40 nM Alexafluor488-labelled streptavidin (SA) was added to a solution of vesicles with entrapped TBD. […] Release of the 40 kDa dextran enables TBD-SA complex formation, which leads to quenching of the AF488 fluorescence (excitation 495 nm, emission at 519 nm) by TAMRA. The fraction of macromolecule leakage was determined by Equation 2: […]
# Step 5: After 60 minutes, the intensity of the AF488-streptavidin was measured to quantitate macromolecule release, which is calculated with equation 2. […]
# Verification of positive peptides. […] Dextran leakage was measured as functions of peptide concentration and pH using vesicles made from phosphatidylcholine lipids.
sequence,measurement,setting,value
GIGEVLHELAEGLPELQEWIHAAQQL [pHD108],pH range of transition from weak to strong membrane partitioning,[1],5-6 pH
same,pH at which spectra show classical α-helix (random coil at pH 7),[2],< 5.75 pH
same,dextran release at pH 7,[3],no activity
